Cleaved PARP after 72 h of treatment

Data from the primary screen of doi:10.1371/journal.pone.0140310, rounded.

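The test systems are human melanoma cell lines, treated with two drugs together for 72 h and then stained and imaged. Each value is the cleaved-PARP-positive fraction of nuclei relative to DMSO-treated wells, in %, so that 100 equals the control and higher values mean more apoptosis. Every drug was used at one fixed concentration, the higher of two screened. The file gives one value for each pair and line, without errors, so small differences may be noise. The marker varies much from line to line, for technical or biological reasons.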 This is part of the screen, not chosen by result.

Drug key:
GW2580: COc1ccc(COc2ccc(Cc3cnc(N)nc3N)cc2OC)cc1 at 5 µM
vismodegib: CS(=O)(=O)c1ccc(C(=O)Nc2ccc(Cl)c(-c3ccccn3)c2)c(Cl)c1 at 5 µM
KU-55933: O=c1cc(-c2cccc3c2Sc2ccccc2S3)oc(N2CCOCC2)c1 at 5 µM
pazopanib: Cc1ccc(Nc2nccc(N(C)c3ccc4c(C)n(C)nc4c3)n2)cc1S(N)(=O)=O at 2 µM
ZM336372: Cc1ccc(NC(=O)c2cccc(N(C)C)c2)cc1NC(=O)c1ccc(O)cc1 at 10 µM
SNS-314: O=C(Nc1cccc(Cl)c1)Nc1ncc(CCNc2ncnc3ccsc23)s1 at 0.004 µM
PD173074: CCN(CC)CCCCNc1ncc2cc(-c3cc(OC)cc(OC)c3)c(NC(=O)NC(C)(C)C)nc2n1 at 0.5 µM
dovitinib: CN1CCN(c2ccc3nc(-c4c(N)c5c(F)cccc5[nH]c4=O)[nH]c3c2)CC1 at 0.5 µM
sunitinib: CCN(CC)CCNC(=O)c1c(C)[nH]c(/C=C2\C(=O)Nc3ccc(F)cc32)c1C at 2 µM
KU-0063794: COc1ccc(-c2ccc3c(N4CCOCC4)nc(N4C[C@@H](C)O[C@@H](C)C4)nc3n2)cc1CO at 0.1 µM

KU-0063794 + pazopanib gave COLO 800: 52.5; MEL-HO: 49.6; IST-MEL1: 123; UACC-62: 151; RVH-421: 244. Results for KU-0063794 + sunitinib are COLO 800: 162; MEL-HO: 102; IST-MEL1: 105; UACC-62: 168; RVH-421: 139. ZM336372 + GW2580 gave COLO 800: 32.1; MEL-HO: 84.4; IST-MEL1: 289; UACC-62: 50.3; RVH-421: 298.

Results for sunitinib + pazopanib are COLO 800: 118; MEL-HO: 537; IST-MEL1: 96.1; UACC-62: 136; RVH-421: 44.6. For GW2580 + KU-55933 the values were COLO 800: 96.7; MEL-HO: 114; IST-MEL1: 31.4; UACC-62: 93.4; RVH-421: 123. For dovitinib + PD173074 the values were COLO 800: 98.0; MEL-HO: 81.0; IST-MEL1: 148; UACC-62: 116; RVH-421: 23.6.

Results for sunitinib + GW2580 are COLO 800: 97.4; MEL-HO: 195; IST-MEL1: 126; UACC-62: 138; RVH-421: 166. With KU-55933 + PD173074 the screen read COLO 800: 111; MEL-HO: 45.0; IST-MEL1: 24.7; UACC-62: 117; RVH-421: 145. vismodegib + GW2580 gave COLO 800: 105; MEL-HO: 111; IST-MEL1: 121; UACC-62: 194; RVH-421: 67.8.

Results for PD173074 + sunitinib are COLO 800: 122; MEL-HO: 163; IST-MEL1: 80.5; UACC-62: 187; RVH-421: 31.8. Results for sunitinib + ZM336372 are COLO 800: 327; MEL-HO: 307; IST-MEL1: 44.6; UACC-62: 184; RVH-421: 139. Results for dovitinib + GW2580 are COLO 800: 63.3; MEL-HO: 57.0; IST-MEL1: 213; UACC-62: 146; RVH-421: 182.

ZM336372 + SNS-314 gave COLO 800: 194; MEL-HO: 86.3; IST-MEL1: 173; UACC-62: 90.7; RVH-421: 103. For KU-55933 + SNS-314 the values were COLO 800: 387; MEL-HO: 57.2; IST-MEL1: 90.5; UACC-62: 58.4; RVH-421: 148. KU-0063794 + ZM336372 gave COLO 800: 103; MEL-HO: 210; IST-MEL1: 71.8; UACC-62: 49.2; RVH-421: 48.9.

Results for SNS-314 + sunitinib are COLO 800: 188; MEL-HO: 79.6; IST-MEL1: 120; UACC-62: 111; RVH-421: 177. pazopanib + PD173074 gave COLO 800: 82.5; MEL-HO: 80.0; IST-MEL1: 79.4; UACC-62: 163; RVH-421: 24.5. KU-0063794 + KU-55933 gave COLO 800: 75.8; MEL-HO: 118; IST-MEL1: 65.5; UACC-62: 268; RVH-421: 121.

Results for KU-0063794 + SNS-314 are COLO 800: 108; MEL-HO: 143; IST-MEL1: 265; UACC-62: 80.1; RVH-421: 302. KU-55933 + pazopanib gave COLO 800: 74.6; MEL-HO: 46.6; IST-MEL1: 40.4; UACC-62: 115; RVH-421: 141. For PD173074 + KU-0063794 the values were COLO 800: 77.9; MEL-HO: 104; IST-MEL1: 64.1; UACC-62: 229; RVH-421: 116.

Results for PD173074 + SNS-314 are COLO 800: 57.5; MEL-HO: 62.9; IST-MEL1: 89.8; UACC-62: 152; RVH-421: 227. Results for vismodegib + ZM336372 are COLO 800: 86.6; MEL-HO: 123; IST-MEL1: 46.6; UACC-62: 84.6; RVH-421: 53.8. With KU-55933 + sunitinib the screen read COLO 800: 123; MEL-HO: 100; IST-MEL1: 80.8; UACC-62: 270; RVH-421: 61.4.

With dovitinib + SNS-314 the screen read COLO 800: 268; MEL-HO: 173; IST-MEL1: 299; UACC-62: 98.3; RVH-421: 166. Results for PD173074 + GW2580 are COLO 800: 419; MEL-HO: 43.6; IST-MEL1: 77.5; UACC-62: 14.0; RVH-421: 126. With SNS-314 + GW2580 the screen read COLO 800: 117; MEL-HO: 91.7; IST-MEL1: 175; UACC-62: 104; RVH-421: 109.

Results for KU-55933 + dovitinib are COLO 800: 77.6; MEL-HO: 88.1; IST-MEL1: 232; UACC-62: 123; RVH-421: 44.1. vismodegib + KU-0063794 gave COLO 800: 36.4; MEL-HO: 59.8; IST-MEL1: 47.7; UACC-62: 159; RVH-421: 205. With ZM336372 + pazopanib the screen read COLO 800: 129; MEL-HO: 36.7; IST-MEL1: 165; UACC-62: 211; RVH-421: 167.

KU-0063794 + GW2580 gave COLO 800: 59.0; MEL-HO: 115; IST-MEL1: 56.1; UACC-62: 30.5; RVH-421: 167. Results for vismodegib + PD173074 are COLO 800: 188; MEL-HO: 68.8; IST-MEL1: 28.9; UACC-62: 158; RVH-421: 71.0. For GW2580 + pazopanib the values were COLO 800: 59.5; MEL-HO: 217; IST-MEL1: 76.5; UACC-62: 153; RVH-421: 126.

With vismodegib + dovitinib the screen read COLO 800: 132; MEL-HO: 48.2; IST-MEL1: 34.2; UACC-62: 156; RVH-421: 52.8. For vismodegib + SNS-314 the values were COLO 800: 161; MEL-HO: 68.8; IST-MEL1: 312; UACC-62: 140; RVH-421: 952. For ZM336372 + dovitinib the values were COLO 800: 146; MEL-HO: 98.9; IST-MEL1: 105; UACC-62: 133; RVH-421: 145.